Experimental data as given in PMC6070288.
These are yes or no findings as the source states them, for the method shown. For some assays here: Binding seen in cells or lysates may run through a third protein. Some entries that bind do so weakly or less than the wild type.

The chains behind the UniProt entries cited, without tags or fusion partners. Residues count along the entry.
UniProt Q14416, residues 19-567: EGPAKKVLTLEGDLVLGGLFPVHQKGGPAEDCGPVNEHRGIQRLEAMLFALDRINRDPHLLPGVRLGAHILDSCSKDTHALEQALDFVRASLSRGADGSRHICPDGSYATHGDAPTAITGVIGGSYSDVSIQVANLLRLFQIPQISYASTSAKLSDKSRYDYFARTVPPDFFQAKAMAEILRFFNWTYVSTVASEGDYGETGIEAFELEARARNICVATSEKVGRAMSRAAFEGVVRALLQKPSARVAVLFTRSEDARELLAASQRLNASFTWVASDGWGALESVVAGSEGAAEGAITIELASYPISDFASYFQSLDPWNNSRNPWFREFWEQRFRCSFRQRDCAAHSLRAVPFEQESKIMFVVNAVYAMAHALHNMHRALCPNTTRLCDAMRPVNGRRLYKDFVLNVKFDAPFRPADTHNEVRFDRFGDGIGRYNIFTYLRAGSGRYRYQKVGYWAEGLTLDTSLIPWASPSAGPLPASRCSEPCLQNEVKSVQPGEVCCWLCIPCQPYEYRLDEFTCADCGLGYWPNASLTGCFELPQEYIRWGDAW
UniProt P03522, residues 17-511: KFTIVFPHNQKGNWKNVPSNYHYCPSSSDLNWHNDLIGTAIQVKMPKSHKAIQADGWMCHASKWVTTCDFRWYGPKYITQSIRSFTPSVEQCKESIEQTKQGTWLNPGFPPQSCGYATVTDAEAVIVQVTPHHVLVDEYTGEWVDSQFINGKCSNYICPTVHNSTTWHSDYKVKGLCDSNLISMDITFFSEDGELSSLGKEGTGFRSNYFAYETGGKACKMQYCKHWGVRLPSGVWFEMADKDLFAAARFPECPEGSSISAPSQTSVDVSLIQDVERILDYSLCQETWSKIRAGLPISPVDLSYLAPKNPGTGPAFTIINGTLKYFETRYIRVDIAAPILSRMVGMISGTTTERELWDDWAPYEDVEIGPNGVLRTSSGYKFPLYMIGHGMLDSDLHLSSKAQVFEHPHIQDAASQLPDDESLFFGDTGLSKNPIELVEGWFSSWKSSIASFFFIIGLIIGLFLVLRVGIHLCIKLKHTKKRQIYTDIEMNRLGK
UniProt P03524, residues 41-450: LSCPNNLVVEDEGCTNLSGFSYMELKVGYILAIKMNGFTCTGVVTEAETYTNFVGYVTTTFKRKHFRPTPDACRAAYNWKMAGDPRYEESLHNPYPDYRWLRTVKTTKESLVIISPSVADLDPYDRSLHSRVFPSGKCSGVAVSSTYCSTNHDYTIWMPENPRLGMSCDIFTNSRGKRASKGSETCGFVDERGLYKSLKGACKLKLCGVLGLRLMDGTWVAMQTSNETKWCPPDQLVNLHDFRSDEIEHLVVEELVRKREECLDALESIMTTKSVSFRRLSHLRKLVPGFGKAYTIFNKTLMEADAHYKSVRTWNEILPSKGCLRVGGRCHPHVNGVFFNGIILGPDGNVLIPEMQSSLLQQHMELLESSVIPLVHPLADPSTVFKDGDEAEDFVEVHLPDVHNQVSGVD

Legend:
[1] = molecular target: N-terminal GST-tagged soluble ectodomain of mGluR2 (amino acids 19-567) (UniProt Q14416); experiment: pull-down; only the target purified
[2] = molecular target: N-terminal GST-tagged soluble ectodomain of mGluR2 (amino acids 19-567) (UniProt Q14416); experiment: pull-down; both purified

“Myc-tagged vesicular stomatitis virus G (from UniProt P03522 17-511)” was tested, and the binding [1] was “no binding”.
For “N-terminal His-tagged ERA G protein ectodomain soluble protein (amino acids 41-450) (from UniProt P03524 41-450) (domain or fragment)”, the binding [2] was “binds”.
